These are yes or no findings as the source states them, for the method shown. In cells and extracts the contact can be indirect. Some results given as binding are weak or reduced against the parent protein; the word gives no strength. Sequences can lack the tags named with a protein.

Protein sequences, listed by entry. Tags and fused reporters are not part of them. Lines headed by an entry give the natural chain unless they say otherwise; changes in a name come on top.
UniProt Q13283: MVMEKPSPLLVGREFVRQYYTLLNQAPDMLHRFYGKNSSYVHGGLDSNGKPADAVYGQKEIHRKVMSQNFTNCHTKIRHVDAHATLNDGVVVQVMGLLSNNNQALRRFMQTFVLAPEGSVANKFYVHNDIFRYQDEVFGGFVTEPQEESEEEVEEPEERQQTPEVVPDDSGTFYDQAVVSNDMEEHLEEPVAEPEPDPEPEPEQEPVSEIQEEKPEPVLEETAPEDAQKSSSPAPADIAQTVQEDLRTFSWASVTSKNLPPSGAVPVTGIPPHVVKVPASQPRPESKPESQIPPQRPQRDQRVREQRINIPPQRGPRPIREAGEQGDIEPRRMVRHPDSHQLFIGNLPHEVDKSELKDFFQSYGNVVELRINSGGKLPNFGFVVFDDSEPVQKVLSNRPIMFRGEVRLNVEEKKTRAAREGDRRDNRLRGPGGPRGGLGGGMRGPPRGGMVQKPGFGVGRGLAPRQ

In one assay the target is T1, 3×Flag-NCOA7 (human) (UniProt Q8NI08).
T1 sequence: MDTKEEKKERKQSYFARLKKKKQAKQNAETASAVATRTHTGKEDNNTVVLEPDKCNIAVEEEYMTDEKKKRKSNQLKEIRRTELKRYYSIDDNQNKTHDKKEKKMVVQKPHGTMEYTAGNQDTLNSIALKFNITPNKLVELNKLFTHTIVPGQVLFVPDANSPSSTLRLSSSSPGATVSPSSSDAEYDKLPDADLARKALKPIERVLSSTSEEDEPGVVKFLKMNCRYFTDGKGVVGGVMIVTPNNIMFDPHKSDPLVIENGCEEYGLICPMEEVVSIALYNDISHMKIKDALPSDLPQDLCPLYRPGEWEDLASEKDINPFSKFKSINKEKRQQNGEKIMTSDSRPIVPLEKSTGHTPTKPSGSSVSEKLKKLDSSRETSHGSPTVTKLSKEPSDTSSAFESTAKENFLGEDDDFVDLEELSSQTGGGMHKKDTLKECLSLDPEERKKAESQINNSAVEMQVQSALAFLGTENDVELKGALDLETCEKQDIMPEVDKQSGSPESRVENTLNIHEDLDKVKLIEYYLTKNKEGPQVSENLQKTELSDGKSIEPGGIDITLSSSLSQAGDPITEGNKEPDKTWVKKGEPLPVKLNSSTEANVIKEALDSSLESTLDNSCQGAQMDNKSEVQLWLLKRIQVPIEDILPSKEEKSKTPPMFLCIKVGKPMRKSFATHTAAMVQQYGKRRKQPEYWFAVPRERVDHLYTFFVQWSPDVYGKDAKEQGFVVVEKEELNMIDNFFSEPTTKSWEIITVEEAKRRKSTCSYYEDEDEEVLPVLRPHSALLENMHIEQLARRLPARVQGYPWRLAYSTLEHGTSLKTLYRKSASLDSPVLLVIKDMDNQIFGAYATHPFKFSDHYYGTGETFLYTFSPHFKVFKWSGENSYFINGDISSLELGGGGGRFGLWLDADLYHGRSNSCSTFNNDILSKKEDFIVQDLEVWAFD
Briefly: co-IP; HEK293T cells co-transfected with 4 µg of each plasmid, lysed after 48 h, Flag beads used for the immunoprecipitation, SDS-PAGE and blot.

Assay [1] concerns the target T2, Flag-NCOA7-ΔTLDc (lacking amino acids 780–942) (human) (UniProt Q8NI08).
T2 sequence: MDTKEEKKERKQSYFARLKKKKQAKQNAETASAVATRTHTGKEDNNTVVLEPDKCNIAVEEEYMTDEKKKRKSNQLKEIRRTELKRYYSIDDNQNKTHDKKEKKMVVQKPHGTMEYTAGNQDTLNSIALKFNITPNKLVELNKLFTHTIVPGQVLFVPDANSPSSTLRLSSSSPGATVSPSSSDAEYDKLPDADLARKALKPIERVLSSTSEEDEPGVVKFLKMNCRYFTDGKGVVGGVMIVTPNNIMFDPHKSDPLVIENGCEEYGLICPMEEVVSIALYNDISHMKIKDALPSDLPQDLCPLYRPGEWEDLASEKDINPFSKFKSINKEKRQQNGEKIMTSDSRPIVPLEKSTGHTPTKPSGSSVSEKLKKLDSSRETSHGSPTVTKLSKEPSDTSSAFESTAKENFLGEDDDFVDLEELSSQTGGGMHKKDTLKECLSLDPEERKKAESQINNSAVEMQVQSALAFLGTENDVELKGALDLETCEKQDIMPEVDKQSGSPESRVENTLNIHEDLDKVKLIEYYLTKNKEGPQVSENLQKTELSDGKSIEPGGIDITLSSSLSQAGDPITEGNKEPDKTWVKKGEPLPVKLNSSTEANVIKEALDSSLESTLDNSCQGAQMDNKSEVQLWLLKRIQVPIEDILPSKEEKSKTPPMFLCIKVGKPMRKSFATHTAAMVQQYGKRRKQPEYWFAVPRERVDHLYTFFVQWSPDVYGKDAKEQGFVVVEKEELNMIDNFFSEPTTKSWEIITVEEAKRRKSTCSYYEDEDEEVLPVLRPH
The description is as above.

For HA–G3BP1 (from UniProt Q13283 1-466), the binding result (with 3×Flag-NCOA7 (human); in assay [1]) was “binds” each time.

For the substance “HA-G3BP1-ΔNTF2L (lacking amino acids 1–139) (from UniProt Q13283 140-466) (domain or fragment)”, in the assay with 3×Flag-NCOA7 (human), the binding entry is recorded as “no binding”.
